This passage reports binding results from PMC4390146.

Protein sequences, listed by entry. Tags and fused reporters are not part of them. Chains listed by the source or under a name are the forms on record and can include a tag or linker. Residues count along the entry.
UniProt Q15691: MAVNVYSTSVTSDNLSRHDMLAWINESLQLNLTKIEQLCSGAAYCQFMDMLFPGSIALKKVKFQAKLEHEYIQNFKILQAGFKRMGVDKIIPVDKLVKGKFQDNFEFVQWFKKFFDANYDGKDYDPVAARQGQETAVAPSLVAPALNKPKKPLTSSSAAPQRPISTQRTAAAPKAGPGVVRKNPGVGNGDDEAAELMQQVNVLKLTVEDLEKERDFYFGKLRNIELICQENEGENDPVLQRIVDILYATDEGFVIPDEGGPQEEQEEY
FTβ amino acids 1–373, HA-tagged (P49356, residues 1-373): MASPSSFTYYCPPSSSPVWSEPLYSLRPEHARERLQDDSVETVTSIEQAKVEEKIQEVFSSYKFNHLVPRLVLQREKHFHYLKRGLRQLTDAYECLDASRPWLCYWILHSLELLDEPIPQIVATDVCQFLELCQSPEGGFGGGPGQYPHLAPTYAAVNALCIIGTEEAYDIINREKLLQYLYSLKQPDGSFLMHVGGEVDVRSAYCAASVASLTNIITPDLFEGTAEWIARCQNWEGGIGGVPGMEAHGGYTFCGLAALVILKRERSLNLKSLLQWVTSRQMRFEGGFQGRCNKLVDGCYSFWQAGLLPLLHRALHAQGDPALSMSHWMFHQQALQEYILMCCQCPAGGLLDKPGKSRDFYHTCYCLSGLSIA
FTβ amino acids 1–138, HA-tagged (P49356, residues 1-138): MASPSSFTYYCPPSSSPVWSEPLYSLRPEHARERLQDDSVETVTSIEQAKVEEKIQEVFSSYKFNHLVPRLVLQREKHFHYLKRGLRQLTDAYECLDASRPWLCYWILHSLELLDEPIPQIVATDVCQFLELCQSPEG
FTβ amino acids 76–437, HA-tagged (P49356, residues 76-437): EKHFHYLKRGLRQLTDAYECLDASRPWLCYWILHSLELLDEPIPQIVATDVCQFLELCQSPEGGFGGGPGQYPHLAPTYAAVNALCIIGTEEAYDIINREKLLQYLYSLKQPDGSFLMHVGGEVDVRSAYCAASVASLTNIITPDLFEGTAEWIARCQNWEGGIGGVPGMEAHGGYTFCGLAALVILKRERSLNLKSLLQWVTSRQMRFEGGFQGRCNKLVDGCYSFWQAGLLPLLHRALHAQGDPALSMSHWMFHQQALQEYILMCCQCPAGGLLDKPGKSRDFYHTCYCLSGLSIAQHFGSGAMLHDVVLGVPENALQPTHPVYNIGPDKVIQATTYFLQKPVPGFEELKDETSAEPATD
FTβ amino acids 76–373, HA-tagged (P49356, residues 76-373): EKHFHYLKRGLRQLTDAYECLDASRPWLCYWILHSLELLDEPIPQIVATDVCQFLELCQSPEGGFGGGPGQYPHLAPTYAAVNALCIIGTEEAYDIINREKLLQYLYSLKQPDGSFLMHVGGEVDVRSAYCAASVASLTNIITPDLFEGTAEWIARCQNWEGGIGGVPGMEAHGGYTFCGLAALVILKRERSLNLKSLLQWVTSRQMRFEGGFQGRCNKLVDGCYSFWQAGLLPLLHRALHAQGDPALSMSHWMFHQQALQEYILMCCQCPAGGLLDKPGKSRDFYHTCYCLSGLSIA

No constants are given. Whether binding was seen depends on the method and setting. Binding seen in cells or lysates may run through a third protein. Some binding calls cover weakened binding; strength is not graded here.

The target of this experiment is microtubule-associated protein RP/EB family member 1 (MAPRE1), full length, GST-tagged (UniProt Q15691). The experiment can be described thus: pull-down; HUVECs co-transfected with GST-MAPRE1 and HA-FTβ (or their truncated forms); cell lysate incubated with glutathione Sepharose 4B beads at 4°C for 2 hours, washed, Western blot; in one panel cells treated with DMSO or 10 μM lonafarnib for 24 hours before the pull-down (association decreased).
Consider “FTβ amino acids 1–138, HA-tagged (from UniProt P49356 1-138) (domain or fragment)”, for which the binding entry is listed as “no binding”. Next, “FTβ amino acids 1–373, HA-tagged (from UniProt P49356 1-373) (domain or fragment)”: “binds”.

Turning to “FTβ amino acids 76–373, HA-tagged (from UniProt P49356 76-373) (domain or fragment)”, the binding entry is reported as “binds”. As for “FTβ amino acids 76–437, HA-tagged (from UniProt P49356 76-437) (domain or fragment)”, the entry is “binds”.
